Data published in PubChem BioAssay AID2685 (National Center for Advancing Translational Sciences (NCATS), 2010).
The other results are listed elsewhere or left out. Shown are side measurements of this screen, not its main read-out; they come without a call. Compounds called inactive in the main read-out are mostly missing here. The note in brackets gives the kind of curve behind each potency; many fits are weak.

Assay: qHTS Assay for Lipid Storage Modulators in Drosophila S3 Cells;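 as to cell number change: cells counted by Cell Tracker Red CMTPX staining in the red channel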
Conditions: BODIPY lipid droplet fluorescence, 18-24 h; for cell number change: measured here: cell count max response, cells fed with added oleic acid
Summary of the method: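 Drosophila S3 cells loaded with oleic acid (400 uM, as added) and compounds at several concentrations; lipid droplets imaged by 488-nm laser-scanning cytometry, 500–530 nm intensity and object ratio to cell channel. Percent activity normalized to 20 uM Triacsin C.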

[1] = measured here: lipid fluorescence (Fed channel) AC50, cells fed with added oleic acid
[2] = measured here: cell number channel AC50, cells fed with added oleic acid

SMILES	cell number change [%]	AC50 [1]	AC50 [2]
N#CCCN(C(=O)COc1ccc(Br)cc1F)c1ccc(F)cc1	19.4		
NC(=O)c1ccc(-c2nnn(CC(=O)Nc3cccc(S(=O)(=O)N4CCCC4)c3)n2)cc1	-6.55	29.1 µM [falling, single point]	
COc1cccc(C2(O)CCN(C(=O)c3cccs3)CC2)c1	-16.4	2.59 µM [rising, single point]	
C=CCOC(=O)COc1ccc2c(C)c(CC)c(=O)oc2c1	-51.2	3.66 µM [falling, full curve]	3.66 µM [falling, full curve]
CCN(CC)c1ccc(S(=O)(=O)N2CCOCC2)cc1NC(=O)CSc1nnc(N)s1	-95.9	0.00517 µM [falling, full curve, poor fit]	0.00517 µM [falling, full curve, poor fit]
CCCCN=CC1=C(O)C(C(=O)OC)C(C)(C)CC1=O (stereo not given)	-204	6.51 µM [falling, single point]	23.1 µM [falling, partial curve]
O=C(NC1CCCCC1)NC1CC2CCC(C1)N2C(=O)NCc1ccccc1 (stereo not given)	-84.4	23.1 µM [falling, single point]	23.1 µM [falling, single point]
CC(=O)Nc1ccc2c(c1)nc(CCN1CCOCC1)n2C	-43.7		2.31 µM [falling, full curve]
C[C@]1(CC/C(=C/CO)CO)[C@H](CO)CC[C@@]23COC(=O)C2=CCC[C@@H]31	20.5	23.1 µM [rising, single point]	
Cc1c(C(=O)OCC(=O)N(C)c2ccccc2)cccc1[N+](=O)[O-]		6.51 µM [rising, single point]	
COc1c(C)cc(C(=O)C2CCCN(C(=O)c3ccc4cc[nH]c4c3)C2)cc1C (stereo not given)	-34.5	29.1 µM [falling, single point]	29.1 µM [falling, single point]
Cc1ccc2[nH]c(C(=O)Nc3ccc(F)cc3)cc2c1	-21.9	29.1 µM [falling, single point]	
CSc1cccc(NC(=O)C2CCCN(c3ncnc4c3nc3n4CCCCC3)C2)c1 (stereo not given)	-2.72	6.51 µM [rising, partial curve, poor fit]	
O=C(c1ccc(CS(=O)c2ccccc2Cl)o1)N1CCOCC1 (stereo not given)	-21.2		
CC(=O)c1cccc(NS(=O)(=O)N(C)C)c1	-151	29.1 µM [falling, single point]	29.1 µM [falling, single point]
FC(F)(F)c1nnc2ccc(NCn3nnc4ccccc43)nn12	73.1	0.13 µM [rising, full curve, poor fit]	3.66 µM [rising, partial curve, poor fit]
O=C1c2ccccc2C(=O)N1CCc1c[nH]c2ccccc12	24.8	0.13 µM [falling, full curve, poor fit]	
CC(=O)c1sc(NC(=O)c2cccc3ccccc23)nc1C	34.7		25.9 µM [rising, single point]
O=C(CC1SC(=Nc2ccc(OC(F)F)cc2)N(CCN2CCOCC2)C1=O)Nc1ccccc1 (stereo not given)	-8.37	0.82 µM [falling, single point]	
CC(Sc1nnc2c(n1)C1CCC2(C)C1(C)C)C(=O)Nc1ccccc1 (stereo not given)	-84	2.59 µM [falling, full curve]	16.4 µM [falling, partial curve, poor fit]
COc1ccc(C)cc1NC(=O)c1[nH]c(C)c(C(C)=O)c1C	-12.6		
CCOc1ccc(N=Cc2ccc3ccccc3c2)cc1	19.7		
CC1CN(C(=S)SCCN2C(=O)CCC2=O)CC(C)O1 (stereo not given)	19.7		
COCc1cc(C)nc2sc(C(=O)Nc3ccc(C(=O)OC)cc3)c(N)c12	-27	29.1 µM [falling, single point]	
O=C(NC(=S)NNC(=O)c1ccco1)c1ccccc1	0.0203	3.26 µM [rising, partial curve, poor fit]	6.51 µM [rising, single point]
COC(=O)c1cn(CCOc2ccc(C)cc2)c2ccccc12	7.33		
COc1ccc(/C=C(/C#N)C(=O)Nc2ccc(O)cc2)cc1C(=O)O	-15.6	2.59 µM [falling, full curve]	
Nc1ncnc2c1C1(CCCCC1)Cc1ccccc1-2	-10		3.66 µM [rising, single point]
CCOC(=O)N1CCN(C(=O)c2ccc(CN(c3ccc(C)c(C)c3)S(C)(=O)=O)cc2)CC1	9.02	11.6 µM [falling, partial curve]	

Part of the list above in order of formula weight, low to high.
SMILES	cell number change [%]	AC50 [1]	AC50 [2]
O=C(NC(=S)NNC(=O)c1ccco1)c1ccccc1	0.0203	3.26 µM [rising, partial curve, poor fit]	6.51 µM [rising, single point]
O=C1c2ccccc2C(=O)N1CCc1c[nH]c2ccccc12	24.8	0.13 µM [falling, full curve, poor fit]	
O=C(NC1CCCCC1)NC1CC2CCC(C1)N2C(=O)NCc1ccccc1 (stereo not given)	-84.4	23.1 µM [falling, single point]	23.1 µM [falling, single point]
